Results are given in words; binding and its absence hold for the method and conditions named. In cells and extracts the contact can be indirect. For some of these results: Binding can be weak; no strength is given.

The target of assay [1] is ND2.1-GST fusion protein (amino acids 239-321 of human ND2) (human). The assay can be described thus: biotinylated peptides on ND2.1-GST, bead pull-down and dot blot.
Assay [2] has the same target. Nature of the assay: legend of FIGS. 6A-C (biotinylated peptides on ND2.1-GST, bead pull-down and dot blot).
Assay [3] addresses Fyn, native protein in brain homogenate. Nature of the assay: co-immunoprecipitation from brain homogenate with anti-ND2, immunoblot with anti-Fyn. On the technique in general: In western blotting, separated proteins are transferred to a membrane and probed.
For assay [4], the target named is GABAARα, native protein in PSD preparations (rat). The assay can be described thus: co-immunoprecipitation from PSD preparations with anti-GABAARα, probed with anti-ND2.

B1: Src40-49 peptide (SUDAPI-1) (peptide)
peptide: KPASADGHR
modifications: biotinylated with Sulfo-NHS-Biotin when used as probe
In the case of B1, the binding result in assay [1] and in assay [2] was “binds” throughout.

B2: NADH dehydrogenase subunit 2 (ND2), native protein in brain lysates, PSD preparations, hippocampal neurons and tissues (protein, UniProt P11662 1-346, looked up)
chain: MNPITLIIIYFTILMGPVITMSSSNLLLMWVGLEMSLLAIIPLLANKKSPRSTEAATKYFLTQATASMIILLVIILNYKQSGMWTLQQQTNNMLLNMMLISLAMKLGLAPFHYWLPEVTQGIPLHIGLILLTWQKIAPLSILYQFYQLLNPTITTILAISSVFVGAWGGLNQTQTRKIMAYSSIAHMGWMTAILPYNPNLTLLNLTIYILLTVPMFITLMTNSATTINTLSLAWNKTPMILTMTSIILLSLGGLPPLTGFLPKWAIISELLKNNCSTLSTLMAIMALLSLFFYTRLIYSMSLTMFPTNNNSKMISHHHQNPKHNFILPTLTVLSTLTLPLSSQLIT
Regarding B2, the binding entry in assay [3] and in assay [4] was “no binding” in each case.

The record behind these values is US20070059320A1.
